# Reference: publication PMC11672294, “The Antipsychotic Drug Aripiprazole Suppresses Colorectal Cancer by Targeting LAMP2a to Induce RNH1/miR‐99a/mTOR‐Mediated Autophagy and Apoptosis” (Advanced Science, 2024)
# Counter-ions that a name gives are not always drawn. The entries are a selection whose mix differs from that of the whole data set.
# Tested on: HT29
# Conditions: 72 h, relative to DMSO; 10 µM
# Text: To investigate the key signaling pathways and biological processes involved in CRC progression, we analyzed the National Center for Biotechnology Information Gene Expression Omnibus (GEO) dataset GSE115313, which included 42 CRC and paired normal tissues (Figure 1A). […] Next, we performed an Annexin V‐fluorescein isothiocyanate (FITC)/propidium iodide (PI) staining assay to determine the effect of aripiprazole on apoptosis in CRC cells. […] A) Principal component analysis of GEO dataset (GSE115313), which includes 42 CRC and paired normal tissues. B) Gene Ontology pathway analysis of the DEPs between CRC and paired normal tissues. […] D) Schematic diagram for identifying anticancer drugs amongst an US Food and Drug Administration‐approved small‐molecule library (616 compounds) using WST‐1 assay. E) HT29 cells were treated with the 616 drugs (10 µM) individually or with dimethyl sulfoxide for 72 h, followed by WST‐1 assay. […] J) Mice bearing HT29‐derived tumor xenografts were intragastrically administered with aripiprazole (10 or 20 mg kg^−1) once every 2 d, n = 6 mice/group. […] Bars, SD; ^* p < 0.05; ^** p < 0.01; ^*** p < 0.001; ns, no significant difference. The WST‐1 Cell Proliferation and Cytotoxicity Assay Kit (Beyotime Biotechnology, Shanghai, China) was used to measure cell viability, as described previously.^[ [10] ^] CRC cells were seeded into 96‐well plates and treated with different drug concentrations. Following that, WST‐1 was added to the plate and incubated with the cells for 2 h, at 37 °C. Absorbance at the wavelength of 450 nm was measured using an automated microplate spectrophotometer (BioTek Instruments, Winooski, VT, USA).
row,Compound,Relative cell viability (%)
1,CCC[C@@H]1C[C@@H](C(=O)N[C@@H]([C@H]2O[C@H](SC)[C@H](O)[C@@H](O)[C@H]2O)[C@H](C)Cl)N(C)C1 [Clindamycin],60.68%
2,COC(=O)C1=C(C)NC(C)=C(C(=O)OC)C1c1ccccc1[N+](=O)[O-] [Nifedipine],90.68%
3,CCn1cc(C(=O)O)c(=O)c2cc(F)c(N3CCN(C)CC3)cc21 [Pefloxacin Mesylate],109.7%
4,C[C@@H](O)[C@H]1C(=O)N2C(C(=O)OCOC(=O)C(C)(C)C)=C(SC3CN(C4=NCCS4)C3)[C@H](C)[C@H]12 [Tebipenem Pivoxil],110.2%
